The source of these data is PubChem BioAssay AID2685 (National Center for Advancing Translational Sciences (NCATS), 2010).

Some of the results follow. Shown are side measurements of this screen, not its main read-out; they come without a call. The list favours compounds with an active or inconclusive main result. Potencies come from curve fits of mixed quality, noted in brackets.

The experiment can be described thus: qHTS Assay for Lipid Storage Modulators in Drosophila S3 Cells.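 For cell number change: cells counted by Cell Tracker Red CMTPX staining in the red channel.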 Conditions: BODIPY lipid droplet fluorescence, 18-24 h; for cell number change: measured here: cell count max response, cells fed with added oleic acid. The method in brief:
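Laser-scanning cytometry quantifies lipid droplet accumulation (500–530 nm total intensity; droplet/cell object ratio) in oleic acid-fed (400 uM added) Drosophila S3 cells treated with a concentration series. 20 uM Triacsin C defined 100% inhibition.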
(qHTS replaces the single test concentration by a dilution series.)

The mark [1] stands for this setting: measured here: cell number channel AC50, cells fed with added oleic acid.
Where [2] appears, read: measured here: lipid fluorescence (Fed channel) AC50, cells fed with added oleic acid.

In the case of `CCc1nnc(NC(=O)c2ccc(-c3ccc(F)cc3)o2)s1`, the cell number change turned out to be 19.8%. Moreover, the half-maximal activity concentration (AC50) (usually the concentration at which the activity in the assay is half-maximal) under setting [1] was 0.291 µM [rising, full curve, poor fit]. The AC50 under setting [2] was 1.3 µM [rising, full curve].

As to `Cc1ccc(C(=O)Oc2ccc(C(=O)COC(=O)c3cnccn3)cc2)cc1`, the cell number change is -134%. Moreover, the half-maximal activity concentration (AC50) under setting [1] is 20.6 µM [falling, partial curve]. Besides, the AC50 under setting [2] was 20.6 µM [falling, partial curve].

For `Cc1ccc(C(=O)CSc2ccc(-c3ccncc3)nn2)cc1`, the cell number change is -18.1%. Further, under setting [2], the half-maximal activity concentration (AC50) was 0.0058 µM [falling, full curve, poor fit].

`Cc1nc(NC(=O)CSc2nnnn2Cc2ccccc2)sc1C`: the cell number change is -2.31%. Moreover, under setting [2], the AC50 is 29.1 µM [falling, single point].

Take `O=C1N(c2ccccc2C(F)(F)F)O[C@@]1(c1ccccc1)C1CCCC1`: the cell number change amounted to 3.43%. Moreover, the AC50 under setting [1] was 0.731 µM [falling, single point]. The AC50 under setting [2] was 1.03 µM [falling, single point].

For the molecule `COc1ccc(-n2c(=S)[nH]c3cc(C(=O)NCCCN4CCOCC4)ccc3c2=O)cc1`, the cell number change was determined as 15.8%.

For the molecule `O=C(Cc1cccc2ccccc12)N/N=C/c1ccc(Sc2nc3ccccc3s2)o1`, the cell number change is -0.369%. Also, the AC50 under setting [1] is 0.259 µM [falling, partial curve, poor fit].

With `COc1cc(OC)c(NC2=NCCCCC2)cc1Cl`, the cell number change was determined as 1.89%. Besides, under setting [2], the concentration at half-maximal activity (AC50) is 29.1 µM [rising, single point].

For the molecule `Cc1nn(Cc2ccccc2)c(Cl)c1/C=C/C(=O)OCC(=O)N1CCCC1=O`, the cell number change came out at 70.4%. Moreover, under setting [1], the concentration at half-maximal activity (AC50) was 29.1 µM [rising, single point].

Take `COc1ccc(/C([O-])=C(/C(=S)Nc2ccc(C)c(C)c2)n2c[n+](C)c3ccccc32)cc1OC`: the cell number change was 16.1%. Moreover, the concentration at half-maximal activity (AC50) under setting [2] is 0.164 µM [falling, full curve, poor fit].

As to `COc1cccc(N2C(=O)N(c3ccccc3Cl)C3CS(=O)(=O)CC32)c1` (configuration not stated), the cell number change is -90.2%. Under setting [1], the concentration at half-maximal activity (AC50) is 25.9 µM [falling, partial curve, poor fit]. Moreover, the AC50 under setting [2] is 0.651 µM [falling, single point].

For `CC1CCN(C(=O)c2nc[nH]c2C(=O)OCCNC(=O)OC(C)(C)C)CC1`, the cell number change was -3.84%.

Turning to `Cc1ccc(CNCc2ccccc2Cl)cc1`, the AC50 under setting [1] was 6.51 µM [falling, single point] and the AC50 under setting [2] was 16.4 µM [falling, partial curve].

Consider `COc1ccc(C(c2nnnn2C(C)(C)C)N2CCN(c3nc4ccccc4s3)CC2)cc1OC` (configuration not stated), for which the half-maximal activity concentration (AC50) under setting [1] is 0.58 µM [rising, single point].

As to `Cc1ccc(CCN2CC(C(=O)NCCCN(C)Cc3ccccc3)CC2=O)cc1` (configuration not stated), the cell number change is -9.5%.

For `COc1ccc(S(=O)(=O)NCC2CCCN(Cc3ccc(C)o3)C2)cc1` (configuration not stated), the cell number change amounted to 12%. Also, the AC50 under setting [2] is 13 µM [falling, single point].
